Assay results from PubChem BioAssay AID328 (DTP/NCI, 2004).
The list is a part of this screen's results and no random one: it gathers tests that were run many times, whatever their T/C, doses with no T/C, and many T/C values between a quarter and a half above the control. Further doses and runs are listed elsewhere. T/C: endpoint of the treated group in % of that of the vehicle group. Some entries give survivors of the animals treated and no T/C: the source holds a T/C of zero for them, seemingly a mark for toxic or unscored doses. Some doses without a T/C left all or most animals alive at the check, yet need not have been tolerated: the source hardly ever lists a survival T/C far under the control, and the zero likely stands for such cases as well. Survivors were counted at the toxicity check, usually on the fifth day, unless a day is given; later deaths do not show. Schedule codes are those of the source, read here as Q, the interval in days (D) or hours (H), X, the number of doses. Some entries hold several experiments; their values stand side by side, smallest first. Where survival is the endpoint, this PubChem deposit counts one and a half times the control or more as active, and values a quarter to a half above the control carry no call in these data; other NCI protocols may use other cut-offs. Some T/C values carry the count of animals alive at the toxicity check (mostly the fifth day); where none is given, no animal had died by that day. Starred links: 1 amine or outer side, 2 acyl side, 3 side chain; linkers in the order of their positions; H or OH if unused. Positions of bridges follow the written chain, without caps; N, C: chain ends. Non-standard residues stand in square brackets, D forms with d. Residues, ends and D or L forms follow the SMILES beside them. Chains are numbered I, II in the order given. ξ: configuration not given here. Actinocin(9to1) = Cc1c2oc3c(C)ccc(C(=O)[*:1])c3nc-2c(C(=O)[*:2])c(N)c1=O; ξPro(4ξ-Me) = CC1CNC(C(=O)O)C1; NMeV = CN[CH](C(=O)O)C(C)C; Sar = CNCC(=O)O

Tested on: BDF1 mice, P388 leukemia ip, median survival T/C
Test: NCI In Vivo Anticancer Drug Screen. Data for tumor model P388 Leukemia (intraperitoneal) in B6D2F1 (BDF1) mice
Conditions: T/C endpoint: median survival time, higher T/C = longer survival
How it was run: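 Steps: implant the tumour, treat one group with compound and another with vehicle, record survival, then divide treated by control.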

[1] = dose: 5.4 mg/kg/injection, schedule: Q04DX003 (ip), vehicle: saline + alcohol
[2] = dose: 200.0 mg/kg/injection, schedule: Q01DX009 (ip), vehicle: saline
[3] = dose: 100.0 mg/kg/injection, schedule: Q01DX009 (ip), vehicle: saline
[4] = dose: 400.0 mg/kg/injection, schedule: Q01DX009 (ip), vehicle: saline
[5] = dose: 25.0 mg/kg/injection, schedule: Q01DX009 (ip), vehicle: saline
[6] = dose: 50.0 mg/kg/injection, schedule: Q01DX009 (ip), vehicle: saline
[7] = dose: 6.0 mg/kg/injection, schedule: Q01DX009 (ip), vehicle: saline + alcohol
[8] = dose: 400.0 mg/kg/injection, schedule: Q04DX003 (ip), vehicle: saline with Tween-80
[9] = dose: 100.0 mg/kg/injection, schedule: Q01DX009 (ip), vehicle: saline with Tween-80
[10] = dose: 200.0 mg/kg/injection, schedule: Q01DX009 (ip), vehicle: saline with Tween-80
[11] = dose: 200.0 mg/kg/injection, schedule: Q04DX003 (ip), vehicle: Klucel (hydroxypropylcellulose) (HPC)

Cc1c2oc3c(C)ccc(C(=O)NC4C(=O)NC(C(C)C)C(=O)N5CCCC5C(=O)N(C)CC(=O)N(C)C(C(C)C)C(=O)OC4C)c3nc-2c(C(=O)NC2C(=O)NC(C(C)C)C(=O)N3CCCC3C(=O)N(C)CC(=O)N(C)C(C(C)C)C(=O)OC2C)cc1=O (centres undefined)
T/C (dose: 1.94 mg/kg/injection, schedule: Q04DX003 (ip), vehicle: saline + alcohol): 149 % of control | T/C (dose: 2.4 mg/kg/injection, schedule: Q04DX003 (ip), vehicle: saline + alcohol): 130 % of control | T/C (dose: 3.4 mg/kg/injection, schedule: Q04DX003 (ip), vehicle: saline + alcohol): 133 % of control | T/C (dose: 4.9 mg/kg/injection, schedule: Q01DX001 (ip), vehicle: saline + alcohol): 134 % of control | T/C [1]: 132 % of control | T/C (dose: 7.0 mg/kg/injection, schedule: Q01DX001 (ip), vehicle: saline + alcohol): 134 % of control

CC(=N\[O-])/C(C)=N/O.CC(=N\[O-])/C(C)=N/O.CCCc1ccncc1.[Cl-].[Cl-].[Rh+3]
survivor count [2]: 6 of 6

CC1(CO)C(O)CCC2(C)C1CCC1CC3CC12CCC3(O)CO (centres undefined)
T/C (dose: 37.5 mg/kg/injection, schedule: Q01DX009 (ip), vehicle: saline with Tween-80): 136 % of control

O=C(Nc1ncn[nH]1)C(=O)Nc1ncn[nH]1
survivor count (dose: 50.0 mg/kg/injection, schedule: Q01DX009 (ip), vehicle: saline with Tween-80): 6 of 6

CC(C)C[C@H](O)C(=O)O
T/C [3]: 136 % of control | T/C [2]: 135 % of control | survivor count [4]: 1 of 6

Cc1ccc2c(ccc(C)[n+]2C)c1
T/C [5]: 140 % of control | T/C (dose: 44.0 mg/kg/injection, schedule: Q01DX009 (ip), vehicle: saline): 127 % of control | T/C [6]: 127 % of control | T/C (dose: 67.0 mg/kg/injection, schedule: Q01DX009 (ip), vehicle: saline): 136 % of control | T/C [3]: 140 % of control | survivor count [3]: 2 of 6 | survivor count (dose: 150.0 mg/kg/injection, schedule: Q01DX009 (ip), vehicle: saline): 0 of 6 and 3 of 6

Cc1c2oc3c(C)ccc(C(=O)NC4C(=O)NC(C(C)C)C(=O)N5CC(C)CC5C(=O)N(C)CC(=O)N(C)C(C(C)C)C(=O)OC4C)c3nc-2c(C(=O)NC2C(=O)NC(C(C)C)C(=O)N3CC(C)CC3C(=O)N(C)CC(=O)N(C)C(C(C)C)C(=O)OC2C)c(N)c1=O (centres undefined) (I: TV[ξPro(4ξ-Me)][Sar][NMeV] / II: TV[ξPro(4ξ-Me)][Sar][NMeV]; ester I:1-I:C, II:1-II:C; linker I:N-II:N via Actinocin(9to1); configuration not given here)
survivor count (dose: 1.3 mg/kg/injection, schedule: Q01DX009 (ip), vehicle: saline + alcohol): 8 of 8 | survivor count (dose: 2.16 mg/kg/injection, schedule: Q01DX009 (ip), vehicle: saline + alcohol): 6 of 8 | T/C (dose: 3.24 mg/kg/injection, schedule: Q04DX003 (ip), vehicle: saline + alcohol): 147 % of control | survivor count (dose: 3.6 mg/kg/injection, schedule: Q01DX009 (ip), vehicle: saline + alcohol): 6 of 8 | T/C [1]: 133 % of control | T/C [7]: 131 % of control | survivor count [7]: 5 of 8 | survivor count (dose: 9.0 mg/kg/injection, schedule: Q04DX003 (ip), vehicle: saline + alcohol): 8 of 8 | survivor count (dose: 15.0 mg/kg/injection, schedule: Q04DX003 (ip), vehicle: saline + alcohol): 0 of 8 and 4 of 8 | T/C (dose: 173.0 micrograms/kg/injection, schedule: Q01DX009 (ip), vehicle: saline + alcohol): 142 % of control | T/C (dose: 864.0 micrograms/kg/injection, schedule: Q04DX003 (ip), vehicle: saline + alcohol): 145 % of control | T/C (dose: 2400.0 micrograms/kg/injection, schedule: Q04DX003 (ip), vehicle: saline + alcohol): 127 % of control

Cc1ccc(C)c(CCO)c1
T/C (dose: 100.0 mg/kg/injection, schedule: Q01DX009 (ip), vehicle: other): 130 % of control | survivor count (dose: 400.0 mg/kg/injection, schedule: Q01DX009 (ip), vehicle: other): 0 of 6 and 4 of 6 | survivor count [8]: 6 of 6

C/C(=C/c1c(C)[nH]c(=O)[nH]c1=O)C(=O)O
survivor count [4]: 5 of 6

CSC(=S)NN=C(C)C
survivor count (dose: 6.25 mg/kg/injection, schedule: Q01DX009 (ip), vehicle: saline with Tween-80): 6 of 6 | survivor count (dose: 12.5 mg/kg/injection, schedule: Q01DX009 (ip), vehicle: saline with Tween-80): 1 of 6

OCC#CCO
survivor count (dose: 100.0 mg/kg/injection, schedule: Q01DX001 (ip), vehicle: saline): 2 of 6 | survivor count (dose: 200.0 mg/kg/injection, schedule: Q01DX001 (ip), vehicle: saline): 0 of 6 | survivor count (dose: 400.0 mg/kg/injection, schedule: Q01DX001 (ip), vehicle: saline): 0 of 6

O=C1OC2C(I)C3CCC2C1C3 (centres undefined)
survivor count [4]: 5 of 6

COc1cc2cc(c1Cl)NC(=O)/C=C/[C@]1(C)O[C@H]1[C@H](C)[C@@H]1C[C@@](O)(NC(=O)O1)[C@H](OC)C=C/C=C(\C)C2
survivor count (dose: 1.6 micrograms/kg/injection, schedule: Q01DX009 (ip), vehicle: saline + alcohol): 6 of 6 | survivor count (dose: 3.1 micrograms/kg/injection, schedule: Q01DX009 (ip), vehicle: saline + alcohol): 6 of 6 | survivor count (dose: 6.2 micrograms/kg/injection, schedule: Q01DX009 (ip), vehicle: saline + alcohol): 6 of 6

O=NO.O=N[O-].O=N[O-].[Co+3].[NH-]CC[N-]CCO.[NH-]CC[N-]CCO
survivor count (dose: 100.0 mg/kg/injection, schedule: Q01DX009 (ip), vehicle: water): 2 of 6 | survivor count (dose: 200.0 mg/kg/injection, schedule: Q04DX003 (ip), vehicle: water): 1 of 6

C1=CN(c2ccc(/C=C\c3ccnc4ccccc34)cc2)C=CN1c1ccc(/C=C\c2ccnc3ccccc23)cc1
T/C [9]: 130 % of control [5 of 6 alive] | T/C [10]: 140 % of control

CCOP(=O)(OCC)ON1C(=O)c2cccc3cccc(c23)C1=O
survivor count (dose: 3.12 mg/kg/injection, schedule: Q01DX009 (ip), vehicle: Klucel (hydroxypropylcellulose) (HPC)): 6 of 6

COC(=O)C(Br)c1cccc(OC)c1 (centres undefined)
T/C [9]: 135 % of control | T/C (dose: 400.0 mg/kg/injection, schedule: Q01DX009 (ip), vehicle: saline with Tween-80): 135 % of control

CCC1CC[N-]CC1.CCC1CC[N-]CC1.[Cl][Pt+2]([Cl])([Cl])[Cl]
survivor count [5]: 4 of 6 | survivor count [6]: 0 of 6

CCN(C(=O)c1ccc(C(=O)N(CC)c2ccccc2)cc1)c1ccccc1
survivor count [8]: 6 of 6

Clc1ccc(-c2noc(CN3CCCCC3)n2)cc1
survivor count [10]: 4 of 6

CC(CN)OCc1ccccc1 (centres undefined)
survivor count (dose: 25.0 mg/kg/injection, schedule: Q04DX003 (ip), vehicle: saline): 6 of 6

CN(C)c1ccc(Nc2c3ccccc3nc3ccccc23)cc1
survivor count (dose: 120.0 mg/kg/injection, schedule: Q01DX010 (ip), vehicle: saline): 6 of 6

Oc1ccc(/C=N/NC(=S)Nc2ccccc2)nc1
T/C (dose: 100.0 mg/kg/injection, schedule: Q04DX003 (ip), vehicle: Klucel (hydroxypropylcellulose) (HPC)): 128 % of control | T/C [11]: 130 % of control

O=C(NO)c1ccccc1
T/C (dose: 200.0 mg/kg/injection, schedule: Q01DX009 (ip), vehicle: Klucel (hydroxypropylcellulose) (HPC)): 127 % of control [4 of 6 alive] | T/C (dose: 400.0 mg/kg/injection, schedule: Q04DX003 (ip), vehicle: Klucel (hydroxypropylcellulose) (HPC)): 138 % of control

C[C@]12CC[C@H](O)CC1=CC[C@@H]1[C@@H]2CC[C@]2(C)c3nc4ccccc4cc3C[C@@H]12
survivor count (dose: 100.0 mg/kg/injection, schedule: Q04DX003 (ip), vehicle: saline with Tween-80): 6 of 6 | survivor count [8]: 6 of 6

CCOC(=O)c1cc(OC(C)=O)c2c(ccc3ccccc32)c1C
survivor count [11]: 6 of 6
